Reference: PMC9403797, “Back From the Dead: The Atypical Kinase Activity of a Pseudokinase Regulator of Cation Fluxes During Inducible Immunity” (Frontiers in Plant Science, 2022)
These are yes or no findings as the source states them, for the method shown. Some entries that bind do so weakly or less than the wild type. Where a sequence is shown, tags or fusion partners need not be part of it.

Amino acid sequences for entries named in this document (tags omitted). Residues count along the entry.
UniProt Q9LK35, residues 23-855: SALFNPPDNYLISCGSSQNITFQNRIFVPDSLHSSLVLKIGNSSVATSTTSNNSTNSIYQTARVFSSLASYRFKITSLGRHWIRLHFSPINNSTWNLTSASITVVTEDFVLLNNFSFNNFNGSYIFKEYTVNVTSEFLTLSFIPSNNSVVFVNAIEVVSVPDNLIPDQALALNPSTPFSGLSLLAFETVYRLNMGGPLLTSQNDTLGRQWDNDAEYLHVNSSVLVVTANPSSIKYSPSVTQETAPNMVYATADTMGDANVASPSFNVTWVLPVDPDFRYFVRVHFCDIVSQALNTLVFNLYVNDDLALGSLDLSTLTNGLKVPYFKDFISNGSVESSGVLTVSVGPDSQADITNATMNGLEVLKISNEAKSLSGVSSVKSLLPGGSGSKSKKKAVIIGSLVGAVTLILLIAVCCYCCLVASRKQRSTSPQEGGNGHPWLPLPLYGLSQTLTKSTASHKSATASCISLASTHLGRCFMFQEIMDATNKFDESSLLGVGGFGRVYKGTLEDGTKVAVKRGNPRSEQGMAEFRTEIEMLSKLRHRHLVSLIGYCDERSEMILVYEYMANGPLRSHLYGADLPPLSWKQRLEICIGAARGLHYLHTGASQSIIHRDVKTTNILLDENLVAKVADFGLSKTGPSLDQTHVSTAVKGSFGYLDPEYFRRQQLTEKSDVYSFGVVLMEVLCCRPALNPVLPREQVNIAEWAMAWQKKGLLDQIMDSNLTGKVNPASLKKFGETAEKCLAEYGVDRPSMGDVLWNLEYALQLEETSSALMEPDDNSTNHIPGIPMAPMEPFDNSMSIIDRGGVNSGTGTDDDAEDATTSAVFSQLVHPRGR

How the values were obtained:
Test in all cases: peptide or protein array; functional protein microarrays (AtPMA-5000 and AtPMA-10000, about 15,000 Arabidopsis proteins) probed with 150 ul purified ILK1-V5 in solution for 1.5 h with 1% BSA, 5 mM MgCl2 and MnCl2; detected with Cy5-conjugated anti-V5 antibody; three probe arrays against two control arrays without probe; one-sided t-test, 5% significance, FDR; both purified
[1] = target: T1, MEKK1 immune signaling kinase (Arabidopsis) (UniProt Q39008)
T1 sequence: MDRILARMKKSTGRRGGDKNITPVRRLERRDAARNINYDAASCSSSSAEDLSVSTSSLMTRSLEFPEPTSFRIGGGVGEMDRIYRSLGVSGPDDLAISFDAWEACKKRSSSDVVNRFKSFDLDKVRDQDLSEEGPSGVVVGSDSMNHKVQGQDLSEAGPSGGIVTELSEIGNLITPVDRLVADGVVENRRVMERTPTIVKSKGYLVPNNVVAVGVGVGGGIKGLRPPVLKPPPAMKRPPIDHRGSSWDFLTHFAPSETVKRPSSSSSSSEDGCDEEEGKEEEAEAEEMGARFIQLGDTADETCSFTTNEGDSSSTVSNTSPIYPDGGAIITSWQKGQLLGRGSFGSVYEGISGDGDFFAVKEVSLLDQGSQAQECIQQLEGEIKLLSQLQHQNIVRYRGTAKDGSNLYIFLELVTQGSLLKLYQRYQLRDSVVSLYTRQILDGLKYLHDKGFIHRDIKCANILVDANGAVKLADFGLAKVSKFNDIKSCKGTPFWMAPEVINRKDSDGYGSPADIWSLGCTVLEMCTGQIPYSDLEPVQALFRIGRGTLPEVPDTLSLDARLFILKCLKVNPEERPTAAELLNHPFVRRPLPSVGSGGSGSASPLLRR

MEKK3 (Arabidopsis) = target: T2, MEKK3 (Arabidopsis) (UniProt Q9M0T3)
T2 sequence: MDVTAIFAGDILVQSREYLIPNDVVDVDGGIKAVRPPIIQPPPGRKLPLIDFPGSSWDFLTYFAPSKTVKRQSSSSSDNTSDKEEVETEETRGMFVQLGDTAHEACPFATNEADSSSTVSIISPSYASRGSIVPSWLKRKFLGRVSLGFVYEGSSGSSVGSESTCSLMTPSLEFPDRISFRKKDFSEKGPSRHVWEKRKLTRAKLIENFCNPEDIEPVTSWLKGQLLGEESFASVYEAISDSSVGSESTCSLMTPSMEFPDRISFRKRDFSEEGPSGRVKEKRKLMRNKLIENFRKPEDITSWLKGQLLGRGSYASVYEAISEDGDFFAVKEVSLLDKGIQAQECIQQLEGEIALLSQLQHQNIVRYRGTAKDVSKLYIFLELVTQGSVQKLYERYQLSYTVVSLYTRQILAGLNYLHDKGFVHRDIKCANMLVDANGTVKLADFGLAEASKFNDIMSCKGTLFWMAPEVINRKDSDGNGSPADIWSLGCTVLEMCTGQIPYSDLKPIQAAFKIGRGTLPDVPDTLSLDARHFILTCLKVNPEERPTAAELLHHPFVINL

[2] = target: T3, STP1 sugar transporter (Arabidopsis) (UniProt P23586)
T3 sequence: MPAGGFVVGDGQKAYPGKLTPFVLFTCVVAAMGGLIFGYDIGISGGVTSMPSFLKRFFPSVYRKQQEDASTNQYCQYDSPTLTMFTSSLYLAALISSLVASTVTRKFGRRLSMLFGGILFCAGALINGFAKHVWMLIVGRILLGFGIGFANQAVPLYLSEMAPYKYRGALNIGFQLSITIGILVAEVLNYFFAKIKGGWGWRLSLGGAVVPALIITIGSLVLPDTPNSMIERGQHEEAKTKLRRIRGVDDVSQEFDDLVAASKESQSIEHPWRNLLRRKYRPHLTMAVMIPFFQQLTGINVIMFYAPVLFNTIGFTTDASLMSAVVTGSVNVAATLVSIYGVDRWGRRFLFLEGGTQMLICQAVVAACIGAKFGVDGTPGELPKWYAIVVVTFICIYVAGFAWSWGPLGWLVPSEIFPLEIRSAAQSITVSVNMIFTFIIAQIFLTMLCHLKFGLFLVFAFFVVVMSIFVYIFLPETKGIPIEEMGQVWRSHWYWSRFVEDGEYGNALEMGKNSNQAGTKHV

[3] = target: THE1 receptor kinase (Arabidopsis) (UniProt Q9LK35)

- binding [1]: no binding
- binding (MEKK3 (Arabidopsis)): binds
- binding [2]: no binding
- binding [3]: no binding
B1: ILK1-V5 (integrin-linked kinase 1, Arabidopsis) (enzyme, UniProt F4IS56 1-479, looked up)
chain: MENITAQLKRGISRQFSTGSIRRTLSRQFTRQSSLDPRRTNMRFSFGRQSSLDPIRRSPDSSKSDDEPHMSVPENLDSTMQLLFMASKGDVRGIEELLDEGIDVNSIDLDGRTALHIAACEGHLGVVKALLSRRANIDARDRWGSTAAADAKYYGNLDVYNLLKARGAKVPKTRKTPMTVSNPREVPEYELNPLEVQVRKSDGISKGAYQVAKWNGTRVSVKILDKDSYSDPERINAFRHELTLLEKVRHPNVIQFVGAVTQNIPMMIVVEYNPKGDLSVYLQKKGRLSPSKALRFALDIARGMNYLHECKPDPIIHCDLKPKNILLDRGGQLKISGFGMIRLSKISQDKAKVANHKAHIDLSNYYIAPEVYKDEIFDLRVDAHSFGVILYEITEGVPVFHPRPPEEVARMMCLEGKRPVFKTKSRSYPPDIKELIEKCWHPEAGIRPTFSEIIIRLDKIVANCSKQGWWKDTFKFPWK
notes: ILK1, integrin-linked kinase 1, a pseudokinase of the Raf-like MAP3K family, Arabidopsis; also called purified ILK1-V5 protein; source: purified as described previously (Brauer et al., 2014, 2016); purity validated by mass spectrometry
